Experimental data as given in patent US11214593B2, “Anticancer peptides and uses thereof” (SUIGENERIS FARMACOSMETICS, S.L., priority 2017, dated 2022).
Not every detail of the peptide structures is certain; ends, links or a residue may be inferred.

System: human pancreatic tumor cell line BXPC3
Experiment: In vitro proliferation assay, cancer growth-inhibitory activity (Assay 1, crystal violet staining)
Format: cell-based
Details: peptide 20 μM final concentration, 72 h, FIG. 1-A
Description: The BXPC3 cell line from primary adenocarcinoma of human pancreas was provided by the Biomedical Research Institute (IRB) of Barcelona, and human umbilical cord primary endothelial cells (HUVEC) were obtained directly by the investigator and stored in liquid nitrogen in the laboratory. BXPC3 cells were maintained in RPMI-1640 culture medium (Gibco) supplemented with 10% fetal bovine serum and antibiotics. HUVEC cells were maintained in M199 culture medium (Gibco) supplemented with 20% fetal bovine serum, endothelial cell growth supplement (ECGS), Heparin (Hep) and antibiotics. Cultures were maintained in the cell incubator in a humid atmosphere at 37° C. containing 5% CO2.
The different peptides to be tested were easily dissolved in DMSO at a concentration of 50 mM and subsequently a 5 mM intermediate dilution was prepared in Dulbecco's PBS which was subjected to two short cycles of sonication, which retendered the peptides completely soluble. […]
Assays with the different peptides were performed following the protocol explained below. […] Once resuspended in culture medium, they were counted in Newbauer's chamber after a 1:1 dilution with trypan blue. […]
The optical density values per well were obtained by a Biotek Synergy™2 multi-detection microplate reader, using a 590 nm filter and by scanning reading, obtaining the mean values per well. […]

“Ac-CFEISKY-NH2 [Peptide P1C, CH3-C(O)-CFEISKY-NH2]” was tested, and the “cancer cell growth in relation to the growth of mock treated cells (100%)” value was 40%.
